Assay results published in patent US20190077844A1.

The chains behind the UniProt entries cited, without tags or fusion partners. Where a name states a change or a piece, a line headed by the entry shows the natural chain unless it says otherwise.
UniProt Q8CFZ4: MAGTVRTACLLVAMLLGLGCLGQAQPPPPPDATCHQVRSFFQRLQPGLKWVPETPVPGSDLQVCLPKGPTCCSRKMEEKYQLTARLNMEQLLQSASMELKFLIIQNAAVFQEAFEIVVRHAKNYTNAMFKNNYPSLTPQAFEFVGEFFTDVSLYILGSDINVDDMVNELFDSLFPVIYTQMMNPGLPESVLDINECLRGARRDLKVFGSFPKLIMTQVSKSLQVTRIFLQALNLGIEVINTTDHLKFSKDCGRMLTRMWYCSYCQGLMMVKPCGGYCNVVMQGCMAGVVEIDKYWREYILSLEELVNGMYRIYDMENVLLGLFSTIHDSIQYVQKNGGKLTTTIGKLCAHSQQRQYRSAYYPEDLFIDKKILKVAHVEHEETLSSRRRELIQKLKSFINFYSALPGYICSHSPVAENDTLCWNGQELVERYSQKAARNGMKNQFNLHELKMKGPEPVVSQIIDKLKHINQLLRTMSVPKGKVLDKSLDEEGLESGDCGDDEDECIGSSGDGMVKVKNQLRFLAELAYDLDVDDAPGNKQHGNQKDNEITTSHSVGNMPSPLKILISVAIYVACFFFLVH

B1: 6077_F02-FITC (designed binder)
chain: MGVSDVPRDLEVVAATPTSLLISWSDDYHAHRYYRITYGETGGNSPVQEFTVPGEHVTATISGLKPGVDYTITVYAVTYDGEKAATDWSISINYRTPCHHHHHH
modifications: fluorescein-5-maleimide on the cysteine
B2: 6077_F02-PEG3.4 (designed binder)
chain: MGVSDVPRDLEVVAATPTSLLISWSDDYHAHRYYRITYGETGGNSPVQEFTVPGEHVTATISGLKPGVDYTITVYAVTYDGEKAATDWSISINYRTPCHHHHHH
modifications: PEG3.4 (site not stated)
B3: 6077_F02.dPEG (designed binder)
chain: MGVSDVPRDLEVVAATPTSLLISWSDDYHAHRYYRITYGETGGNSPVQEFTVPGEHVTATISGLKPGVDYTITVYAVTYDGEKAATDWSISINYRTPCHHHHHH
modifications: dPEG (site and size not stated)
B4: ADX_6077_F02 DG→SG mutant, alkylated (designed binder)
chain: VSDVPRDLEVVAATPTSLLISWSDDYHAHRYYRITYGETGGNSPVQEFTVPGEHVTATISGLKPGVDYTITVYAVTYSGEKAATDWSISINYRTPC
modifications: C-terminal cysteine alkylated
B5: ADX_6077_F02 DG→DA mutant, alkylated (designed binder)
chain: GVSDVPRDLEVVAATPTSLLISWSDDYHAHRYYRITYGETGGNSPVQEFTVPGEHVTATISGLKPGVDYTITVYAVTYDAEKAATDWSISINYRTPC
modifications: C-terminal cysteine alkylated
B6: ADX_6077_F02 DG→DV mutant, alkylated (designed binder)
chain: GVSDVPRDLEVVAATPTSLLISWSDDYHAHRYYRITYGETGGNSPVQEFTVPGEHVTATISGLKPGVDYTITVYAVTYDVEKAATDWSISINYRTPC
modifications: C-terminal cysteine alkylated
B7: ADX_6077_F02 DG→DS mutant, alkylated (designed binder)
chain: GVSDVPRDLEVVAATPTSLLISWSDDYHAHRYYRITYGETGGNSPVQEFTVPGEHVTATISGLKPGVDYTITVYAVTYDSEKAATDWSISINYRTPC
modifications: C-terminal cysteine alkylated
B8: ADX_6077_F02 DG→EG mutant, alkylated (designed binder)
chain: GVSDVPRDLEVVAATPTSLLISWSDDYHAHRYYRITYGETGGNSPVQEFTVPGEHVTATISGLKPGVDYTITVYAVTYEGEKAATDWSISINYRTPC
modifications: C-terminal cysteine alkylated
B9: ADX_6077_F02 DG→DL mutant, alkylated (designed binder)
chain: GVSDVPRDLEVVAATPTSLLISWSDDYHAHRYYRITYGETGGNSPVQEFTVPGEHVTATISGLKPGVDYTITVYAVTYDLEKAATDWSISINYRTPC
modifications: C-terminal cysteine alkylated
B10: ADX_6077_F02 DG→AG mutant, alkylated (designed binder)
chain: GVSDVPRDLEVVAATPTSLLISWSDDYHAHRYYRITYGETGGNSPVQEFTVPGEHVTATISGLKPGVDYTITVYAVTYAGEKAATDWSISINYRTPC
modifications: C-terminal cysteine alkylated

These binders were tested against Recombinant murine glypican-3 (aa 25-557) (R&D Systems) (murine) (UniProt Q8CFZ4) (assay: SPR (Biacore T100)).

binding, binds:
B1
B2
B3
B4
B5
B6
B7
B8
B9
B10

Results are given in words; binding and its absence hold for the method and conditions named. A result given as binding can be weak or reduced; the word gives no strength.
